{"source": "patent US20210079083A1", "about": "(INSTITUTE FOR BASIC SCIENCE, published 2021)", "binders": {"B1": {"name": "humanized anti-Ang2 antibody 4B9H11 (antibody, V domains shown)", "VH": "QVQLVESGGGLVKPGGSLRLSCAASGFTFSDYYMYWIRQAPGKGLEWVSTISVGGSFTYYPDSVKGRFTISRDNAKNSLYLQMNSLRAEDTAVYYCARDWGLRPWFVYWGQGTLVTVSS", "VL": "DIQMTQSPSSLSASVGDRVTITCKASQDVSTAVAWYQQKPGKAPKLLIYWASTRHTGVPSRFSGSGSGTDFTLTISSLQPEDFATYYCQQHYSTPPTFGQGTKVEIK", "notes": "Full-length human IgG1"}, "B2": {"name": "humanized anti-Ang2 antibody 2C8H11 (antibody, V domains shown)", "VH": "QVQLVQSGAEVKKPGASVKVSCKASGYTFTSYWMHWVRQAPGQGLEWMGMIDPSDSETRLNQKFKDRVTMTRDTSTSTVYMELSSLRSEDTAVYYCARRFYYGSDWYFDVWGQGTLVTVSS", "VL": "B1 VL with M4L, S10F, S30G, D70E, H91Y, Y92S, T94Y, P96L", "notes": "Full-length human IgG1"}, "B3": {"name": "4B9H11G4 (human IgG4 class antibody of 4B9H11) (antibody, V domains shown)", "VH": "B1 VH", "VL": "B1 VL", "notes": "The heavy chain constant region was replaced by an IgG4 class constant region; The sentence prints '4B9 heavy chain gene' where 4B9H11 is meant; also called 4B9H11-IgG4"}}, "key": {"mouse Ang2 (mAng2)": {"target": "T1, mouse Ang2 (mAng2) (mouse, UniProt O35608 19-496, limits assumed)", "T1 construct": "Coated on the ELISA plate; also called recombinant mAng2", "T1 sequence (looked up)": "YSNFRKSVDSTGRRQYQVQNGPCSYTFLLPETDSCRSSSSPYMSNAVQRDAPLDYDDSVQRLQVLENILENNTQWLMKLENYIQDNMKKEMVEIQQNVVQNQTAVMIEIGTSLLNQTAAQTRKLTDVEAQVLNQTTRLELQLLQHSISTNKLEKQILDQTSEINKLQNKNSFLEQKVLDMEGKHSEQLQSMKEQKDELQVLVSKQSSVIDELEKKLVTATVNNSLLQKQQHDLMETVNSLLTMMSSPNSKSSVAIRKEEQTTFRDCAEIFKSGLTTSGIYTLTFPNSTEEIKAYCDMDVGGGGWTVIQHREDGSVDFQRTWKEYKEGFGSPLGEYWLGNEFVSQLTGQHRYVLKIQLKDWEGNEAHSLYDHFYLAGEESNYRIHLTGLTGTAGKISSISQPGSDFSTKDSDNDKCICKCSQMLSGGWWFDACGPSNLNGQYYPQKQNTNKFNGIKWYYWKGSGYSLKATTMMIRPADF", "test": "ELISA: recombinant mAng2 coated on the plate, serially diluted antibody, anti-human IgG (Fab)-HRP, TMB, absorbance at 450 nm"}, "[1]": {"target": "T2, Human Angiopoietin-2 full-length (hAng2) (human, UniProt O15123 19-496)", "T2 construct": "The cell assays used full-length hAng2 from R&D Systems; also called human Ang2; A2", "T2 sequence": "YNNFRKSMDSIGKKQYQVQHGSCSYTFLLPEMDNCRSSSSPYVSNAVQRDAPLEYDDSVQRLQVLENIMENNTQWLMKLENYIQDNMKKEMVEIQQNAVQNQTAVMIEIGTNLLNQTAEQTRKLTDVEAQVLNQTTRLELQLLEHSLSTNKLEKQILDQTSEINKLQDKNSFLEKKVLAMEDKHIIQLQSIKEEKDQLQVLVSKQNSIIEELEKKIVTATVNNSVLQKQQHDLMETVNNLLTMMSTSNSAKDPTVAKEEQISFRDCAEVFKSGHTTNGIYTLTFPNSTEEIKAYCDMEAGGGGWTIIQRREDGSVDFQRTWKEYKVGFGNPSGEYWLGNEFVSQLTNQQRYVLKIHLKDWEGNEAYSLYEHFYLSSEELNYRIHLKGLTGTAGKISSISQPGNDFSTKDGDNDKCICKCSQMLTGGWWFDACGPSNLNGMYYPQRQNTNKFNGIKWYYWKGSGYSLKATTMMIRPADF", "test": "BLI (Octet)"}}, "note": "Substitutions are numbered along the chain they refer to. Results are given in words; binding and its absence hold for the method and conditions named. Some results given as binding are weak or reduced against the parent protein; the word gives no strength."}
{"binder": "B1", "values": [{"measurement": "binding", "setting": "mouse Ang2 (mAng2)", "value": "binds"}]}
{"binder": "B2", "values": [{"measurement": "binding", "setting": "mouse Ang2 (mAng2)", "value": "binds"}]}
{"binder": "B3", "values": [{"measurement": "binding", "setting": "[1]", "value": "binds"}]}
